Test results taken from patent publication US20230348540A1, “Viral multimeric peptide constructs for targeting PDZ domains” (University of Copenhagen, priority 2020, published 2023).

Protein sequences, listed by entry. Tags and fused reporters are not part of them.
UniProt Q62083, whole entry: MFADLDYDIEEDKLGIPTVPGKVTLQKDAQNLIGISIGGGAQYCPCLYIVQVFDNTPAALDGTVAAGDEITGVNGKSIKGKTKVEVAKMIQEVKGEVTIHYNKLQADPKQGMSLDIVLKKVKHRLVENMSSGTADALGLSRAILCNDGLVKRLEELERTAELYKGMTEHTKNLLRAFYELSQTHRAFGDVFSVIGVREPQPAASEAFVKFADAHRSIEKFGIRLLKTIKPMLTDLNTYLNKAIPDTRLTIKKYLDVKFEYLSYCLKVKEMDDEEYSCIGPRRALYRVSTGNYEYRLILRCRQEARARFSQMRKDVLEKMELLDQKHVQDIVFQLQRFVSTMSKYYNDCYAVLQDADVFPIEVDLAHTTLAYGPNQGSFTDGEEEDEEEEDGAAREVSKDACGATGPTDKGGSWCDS
UniProt Q9Z0J4, whole entry: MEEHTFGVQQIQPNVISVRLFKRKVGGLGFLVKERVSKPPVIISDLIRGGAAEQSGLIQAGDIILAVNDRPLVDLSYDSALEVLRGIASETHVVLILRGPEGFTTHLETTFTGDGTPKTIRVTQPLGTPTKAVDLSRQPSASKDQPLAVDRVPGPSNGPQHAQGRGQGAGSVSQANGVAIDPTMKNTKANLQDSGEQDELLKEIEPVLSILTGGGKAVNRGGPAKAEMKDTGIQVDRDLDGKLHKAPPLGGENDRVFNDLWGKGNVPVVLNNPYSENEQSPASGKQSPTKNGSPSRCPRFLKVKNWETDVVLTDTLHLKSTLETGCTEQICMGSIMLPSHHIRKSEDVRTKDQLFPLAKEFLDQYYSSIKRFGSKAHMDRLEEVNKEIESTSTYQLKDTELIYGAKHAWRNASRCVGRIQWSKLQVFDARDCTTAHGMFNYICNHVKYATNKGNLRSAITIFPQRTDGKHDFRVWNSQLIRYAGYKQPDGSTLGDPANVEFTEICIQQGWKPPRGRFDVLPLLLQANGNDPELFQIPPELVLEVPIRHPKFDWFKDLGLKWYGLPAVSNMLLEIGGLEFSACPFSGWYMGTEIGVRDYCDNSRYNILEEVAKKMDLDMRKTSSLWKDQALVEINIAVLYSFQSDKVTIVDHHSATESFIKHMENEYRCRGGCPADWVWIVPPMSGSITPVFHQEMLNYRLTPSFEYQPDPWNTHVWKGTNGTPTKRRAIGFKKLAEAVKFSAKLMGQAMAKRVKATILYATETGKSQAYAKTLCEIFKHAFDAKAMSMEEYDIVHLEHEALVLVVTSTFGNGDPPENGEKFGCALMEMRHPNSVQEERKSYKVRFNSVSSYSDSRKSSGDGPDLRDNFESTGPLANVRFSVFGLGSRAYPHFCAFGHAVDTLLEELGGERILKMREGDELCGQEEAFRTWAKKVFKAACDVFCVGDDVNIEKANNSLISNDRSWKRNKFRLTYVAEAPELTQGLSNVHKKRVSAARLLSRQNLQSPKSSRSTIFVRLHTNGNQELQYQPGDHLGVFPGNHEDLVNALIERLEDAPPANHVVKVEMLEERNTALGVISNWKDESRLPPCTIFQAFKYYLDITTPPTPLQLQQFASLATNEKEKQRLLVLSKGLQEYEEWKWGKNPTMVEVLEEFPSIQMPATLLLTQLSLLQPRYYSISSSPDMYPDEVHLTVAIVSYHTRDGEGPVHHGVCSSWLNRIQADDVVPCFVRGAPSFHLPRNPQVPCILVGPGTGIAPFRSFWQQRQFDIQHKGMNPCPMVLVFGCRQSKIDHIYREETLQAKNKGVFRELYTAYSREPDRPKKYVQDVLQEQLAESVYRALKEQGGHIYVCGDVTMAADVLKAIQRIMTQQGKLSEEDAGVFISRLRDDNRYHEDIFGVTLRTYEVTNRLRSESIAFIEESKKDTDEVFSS
UniProt Q62108, whole entry: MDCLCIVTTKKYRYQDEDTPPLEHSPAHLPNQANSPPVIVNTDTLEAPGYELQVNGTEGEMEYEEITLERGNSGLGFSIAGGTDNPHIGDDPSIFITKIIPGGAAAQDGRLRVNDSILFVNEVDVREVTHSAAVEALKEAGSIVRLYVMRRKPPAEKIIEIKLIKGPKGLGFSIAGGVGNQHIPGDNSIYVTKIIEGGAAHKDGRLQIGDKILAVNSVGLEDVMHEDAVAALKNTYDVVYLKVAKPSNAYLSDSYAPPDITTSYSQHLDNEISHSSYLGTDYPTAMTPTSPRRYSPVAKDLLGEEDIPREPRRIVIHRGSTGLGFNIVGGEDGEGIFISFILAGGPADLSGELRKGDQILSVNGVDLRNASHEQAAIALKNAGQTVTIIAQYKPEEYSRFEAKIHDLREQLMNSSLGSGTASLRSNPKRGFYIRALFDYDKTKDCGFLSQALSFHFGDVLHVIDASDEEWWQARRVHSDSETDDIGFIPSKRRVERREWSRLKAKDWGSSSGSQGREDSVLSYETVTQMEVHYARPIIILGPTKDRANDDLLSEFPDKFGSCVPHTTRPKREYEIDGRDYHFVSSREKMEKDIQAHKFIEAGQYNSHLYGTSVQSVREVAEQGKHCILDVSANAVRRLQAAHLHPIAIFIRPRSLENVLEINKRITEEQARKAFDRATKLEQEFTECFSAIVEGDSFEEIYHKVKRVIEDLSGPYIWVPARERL

What was measured:
PICK1 = PICK1 (Mus musculus, UniProt Q62083); settings: mouse spinal cord lysate, biotinylated peptide on streptavidin beads
nNOS = nNOS (Mus musculus, UniProt Q9Z0J4); settings: mouse spinal cord lysate, biotinylated peptide on streptavidin beads
PSD-95 = PSD-95 (Mus musculus, UniProt Q62108); settings: mouse spinal cord lysate, biotinylated peptide on streptavidin beads
[1] = Size exclusion chromatography of peptides (oligomeric state); type: physicochemical; settings: 400 μM peptide, Example 3

target engagement with PICK1 protein (pull-down) (PICK1) | target engagement with nNOS protein (pull-down) (nNOS) | target engagement with PSD-95 protein (pull-down) (PSD-95) | Sequence | oligomeric state in solution (SEC) [1]
does not bind PICK1 | does not bind nNOS protein | does not bind PSD-95 protein | RMKQLEDKVEELLSKNYHLENEVARLKKLVGGGGSGGGGS [GCN4p1-GS4-GS4] | –
– | – | – | RMKQLEDKVEELLSKQYHLENEVARLKKLVGGGGSRRTTPV (GCN4p1(NQ)-GS4-RRTTPV) | trimeric constructs
